Substitutions are numbered along the chain they refer to. These are yes or no findings as the source states them, for the method shown. Binding seen in cells or lysates may run through a third protein. Binding can be weak; no strength is given. Tags and fused reporters may be left off the sequences shown.

Assay in all cases: co-IP; EGFP fusion (bait) expressed in HEK293T with the co-transfected or endogenous partner; lysis in 50 mM Tris-HCl pH 7.5, 150 mM NaCl, 1% Igepal CA-630; EGFP fusions immunoprecipitated with GFP-Trap magnetic agarose beads for 2 hr or overnight at 4 °C; Western blot
(Immunoblotting shows a protein as a band on a membrane.)

Assay [1] has as its target T1, EGFP-INPP5E (C641S) (human) (UniProt Q9NRR6).
T1 sequence: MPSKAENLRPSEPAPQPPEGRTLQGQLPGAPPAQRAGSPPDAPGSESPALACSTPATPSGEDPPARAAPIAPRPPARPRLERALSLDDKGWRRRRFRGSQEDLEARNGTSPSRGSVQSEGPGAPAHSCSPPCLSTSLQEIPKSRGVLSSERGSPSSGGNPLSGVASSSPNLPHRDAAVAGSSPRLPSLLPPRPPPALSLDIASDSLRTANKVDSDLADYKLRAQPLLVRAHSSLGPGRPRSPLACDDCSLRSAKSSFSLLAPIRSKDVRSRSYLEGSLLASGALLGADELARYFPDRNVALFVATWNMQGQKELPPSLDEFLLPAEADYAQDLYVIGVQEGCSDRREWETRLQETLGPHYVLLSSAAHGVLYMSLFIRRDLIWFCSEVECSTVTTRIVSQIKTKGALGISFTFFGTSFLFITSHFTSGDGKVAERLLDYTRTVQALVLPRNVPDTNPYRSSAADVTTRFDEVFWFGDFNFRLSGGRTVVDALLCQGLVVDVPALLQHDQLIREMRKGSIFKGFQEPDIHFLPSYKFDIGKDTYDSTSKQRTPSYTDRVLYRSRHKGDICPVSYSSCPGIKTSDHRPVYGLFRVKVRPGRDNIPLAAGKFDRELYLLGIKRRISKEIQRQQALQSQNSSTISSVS

The target of assay [2] is T2, EGFP-INPP5E (Δ251–273+C641S) (human) (UniProt Q9NRR6).
T2 sequence: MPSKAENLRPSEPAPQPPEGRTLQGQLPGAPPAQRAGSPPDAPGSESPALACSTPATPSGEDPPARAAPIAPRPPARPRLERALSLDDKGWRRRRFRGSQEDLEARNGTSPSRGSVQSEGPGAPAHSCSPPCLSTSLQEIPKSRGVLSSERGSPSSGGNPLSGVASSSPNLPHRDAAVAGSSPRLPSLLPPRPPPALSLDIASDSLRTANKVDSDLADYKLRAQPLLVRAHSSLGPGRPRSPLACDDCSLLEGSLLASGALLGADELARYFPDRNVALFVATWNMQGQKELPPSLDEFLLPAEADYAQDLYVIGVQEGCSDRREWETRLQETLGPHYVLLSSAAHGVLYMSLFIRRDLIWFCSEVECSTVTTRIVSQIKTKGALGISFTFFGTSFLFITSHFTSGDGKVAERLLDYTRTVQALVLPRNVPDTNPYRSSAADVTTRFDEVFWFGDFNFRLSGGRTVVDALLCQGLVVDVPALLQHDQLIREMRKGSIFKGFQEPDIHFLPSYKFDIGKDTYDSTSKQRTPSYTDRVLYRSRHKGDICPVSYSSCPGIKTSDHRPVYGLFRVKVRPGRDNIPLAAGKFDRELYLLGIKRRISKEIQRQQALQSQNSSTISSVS

For assay [3], the target named is T3, EGFP-INPP5E (Δ251–273) (human) (UniProt Q9NRR6).
T3 sequence (chain, CaaX box cysteine C641 farnesylated in cells, as the paper says of INPP5E): T2 sequence with S618C

In assay [4] the target is T4, EGFP-INPP5E (wild type) (human) (UniProt Q9NRR6).
T4 sequence (chain, CaaX box cysteine C641 farnesylated in cells, as the paper says of INPP5E): T1 sequence with S641C

As to Flag-ATG16L1 (human), the binding entry in assay [1] was “binds”; in assay [2], “binds weakly”; in assay [3] it was “binds”; in assay [4], “binds”.

As to Flag-PDE6D (human), the binding entry was “no binding” in assay [1], “no binding” in assay [2], “binds” in assay [3] and “binds” in assay [4].

For the substance Flag-RPGR (human), the binding result in assay [1] was “no binding”; in assay [2], “no binding”; in assay [3] it was “binds”; in assay [4], “binds”.

On to TULP3-myc (human), for which the binding entry in assay [1], in assay [2], in assay [3] and in assay [4] was “binds” in each case.

(Values after article PMC9444247.)
